Earlier results on 1 compound are cited in paper PMC2748165 (Biochemical pharmacology, 2009).

The chains behind the UniProt entries cited, without tags or fusion partners.
UniProt P08183, whole entry: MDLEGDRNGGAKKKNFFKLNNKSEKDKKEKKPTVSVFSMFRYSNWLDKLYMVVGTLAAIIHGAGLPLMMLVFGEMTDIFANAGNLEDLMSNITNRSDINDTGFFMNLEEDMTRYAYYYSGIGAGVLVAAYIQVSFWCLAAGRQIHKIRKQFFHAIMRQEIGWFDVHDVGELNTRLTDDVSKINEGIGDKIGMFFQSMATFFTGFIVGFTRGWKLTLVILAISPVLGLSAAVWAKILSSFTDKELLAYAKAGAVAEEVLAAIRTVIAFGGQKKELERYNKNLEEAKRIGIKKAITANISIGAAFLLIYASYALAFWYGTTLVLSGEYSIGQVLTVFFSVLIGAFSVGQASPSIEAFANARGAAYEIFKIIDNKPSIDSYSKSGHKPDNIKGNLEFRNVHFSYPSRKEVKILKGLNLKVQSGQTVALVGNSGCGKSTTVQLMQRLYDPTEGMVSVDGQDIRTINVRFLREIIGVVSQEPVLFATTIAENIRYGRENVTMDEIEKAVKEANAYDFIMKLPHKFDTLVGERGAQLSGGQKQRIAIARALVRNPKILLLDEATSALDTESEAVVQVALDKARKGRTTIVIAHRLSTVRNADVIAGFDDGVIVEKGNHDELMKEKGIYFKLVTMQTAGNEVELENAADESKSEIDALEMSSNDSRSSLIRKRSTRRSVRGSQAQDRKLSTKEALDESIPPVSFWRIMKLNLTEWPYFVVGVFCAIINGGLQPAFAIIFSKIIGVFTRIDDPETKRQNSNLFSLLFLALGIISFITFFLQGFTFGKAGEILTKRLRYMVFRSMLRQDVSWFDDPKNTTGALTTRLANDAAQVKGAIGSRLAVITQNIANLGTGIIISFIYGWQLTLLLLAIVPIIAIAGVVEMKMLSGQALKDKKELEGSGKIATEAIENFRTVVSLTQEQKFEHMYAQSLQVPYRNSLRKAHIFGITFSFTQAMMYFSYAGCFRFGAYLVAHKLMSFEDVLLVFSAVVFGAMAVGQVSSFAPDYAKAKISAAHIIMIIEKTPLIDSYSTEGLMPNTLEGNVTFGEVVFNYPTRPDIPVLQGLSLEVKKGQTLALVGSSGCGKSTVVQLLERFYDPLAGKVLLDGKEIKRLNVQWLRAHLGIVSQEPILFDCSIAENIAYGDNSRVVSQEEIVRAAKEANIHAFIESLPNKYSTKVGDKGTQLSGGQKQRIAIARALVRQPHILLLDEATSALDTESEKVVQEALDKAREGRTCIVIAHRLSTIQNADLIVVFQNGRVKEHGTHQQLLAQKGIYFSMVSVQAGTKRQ

In the series the target is P-gp (Homo sapiens, UniProt P08183). The settings on record: human cDNA-P-gp membrane preparations; cited from earlier work.

As to `CN1CC[C@]23c4c5ccc(O)c4O[C@H]2[C@@H](O)C=C[C@H]3[C@H]1C5` [morphine], the “interaction with P-gp as determined by stimulation of ATP hydrolysis” value was “interact/bind to P-gp”.
